Results: paper PMC9278983, “Biochemical and Structural Characterization of Thermostable GH159 Glycoside Hydrolases Exhibiting α-L-Arabinofuranosidase Activity” (Frontiers in Molecular Biosciences, 2022)
These are yes or no findings as the source states them, for the method shown.

Molecular target: Ch_Gaf159A (Caldicellulosiruptor hydrothermalis) (UniProt E4QB49)
Experiment: SEC; size-exclusion chromatography of purified Ch_Gaf159A; conditions not given; both purified

binding: no binding
B1: Ch_Gaf159A (enzyme, UniProt E4QB49 2-311)
chain: PRPPAPLFRDPIYDGAADPTIIYNHLEKSWWILYTNRRANQKLPGKAFMHGTDIGIAESKDGGRTWFYRGTIELQYGRGRNTFWAPEVIFYEGEYHMYVSFVPGVPQDWNAERYILYYKSKNLWDWEFVCKLELSSNKVIDACVFQMPDGTFRMWYKDEADHSYIYAAESNNLKDWKILGPALTDRPQEGPNVFWWKSKYWMITDPWCGLGVYSSEDATAWHRHENILDRPGKREDDGQIGHHADVLVIDDETAYIFYFTHPEGMEGTEEFWKDSKYWRTSLQVAKLEYVDGKVVCDRDKEFDFYLPDLF
